Results taken from PMC7297381, “Potent, specific MEPicides for treatment of zoonotic staphylococci” (PLoS Pathogens, 2020).

System: S. schleiferi wild-type and glpT mutant isolates
Test: Quantification of intracellular FSM by LC-MS

## O=CN(O)CCCP(=O)(O)O [FSM, fosmidomycin]
Four FSM-resistant glpT mutant S. schleiferi strains (3408, 4494, 7376, 8400)
  intracellular accumulation of FSM: do not
wild-type S. schleiferi, FSM at 10x WT IC50
  intracellular accumulation of FSM: readily accumulates
